Assay results reported in PMC9179584.
These are yes or no findings as the source states them, for the method shown. In cells and extracts the contact can be indirect. Some entries that bind do so weakly or less than the wild type.

The chains behind the UniProt entries cited, without tags or fusion partners.
UniProt P84022: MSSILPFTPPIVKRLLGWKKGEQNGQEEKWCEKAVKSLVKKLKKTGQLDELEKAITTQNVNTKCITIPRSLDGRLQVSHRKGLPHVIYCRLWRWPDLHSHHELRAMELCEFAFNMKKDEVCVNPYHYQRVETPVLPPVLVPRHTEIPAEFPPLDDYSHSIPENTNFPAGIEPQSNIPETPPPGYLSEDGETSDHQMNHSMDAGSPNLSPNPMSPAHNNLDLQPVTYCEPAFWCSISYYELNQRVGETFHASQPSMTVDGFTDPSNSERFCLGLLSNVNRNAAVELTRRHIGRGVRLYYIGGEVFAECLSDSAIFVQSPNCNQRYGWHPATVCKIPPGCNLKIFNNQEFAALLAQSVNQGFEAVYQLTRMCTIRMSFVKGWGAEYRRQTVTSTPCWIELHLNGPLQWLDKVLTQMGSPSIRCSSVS
UniProt Q15796: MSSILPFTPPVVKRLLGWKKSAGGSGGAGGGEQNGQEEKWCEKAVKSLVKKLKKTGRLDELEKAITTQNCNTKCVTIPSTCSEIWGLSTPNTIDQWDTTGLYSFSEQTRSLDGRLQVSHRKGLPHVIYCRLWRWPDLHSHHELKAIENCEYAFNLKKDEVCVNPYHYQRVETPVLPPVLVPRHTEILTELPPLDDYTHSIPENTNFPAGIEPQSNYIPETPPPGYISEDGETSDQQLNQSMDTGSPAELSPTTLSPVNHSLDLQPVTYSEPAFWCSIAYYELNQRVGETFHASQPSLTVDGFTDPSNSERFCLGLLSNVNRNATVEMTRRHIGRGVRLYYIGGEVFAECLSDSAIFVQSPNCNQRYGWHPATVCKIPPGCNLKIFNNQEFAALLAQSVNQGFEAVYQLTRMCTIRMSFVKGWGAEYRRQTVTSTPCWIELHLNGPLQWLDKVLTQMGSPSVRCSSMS

Molecular target: T1, SMAD Anchor for Receptor Activation (SARA) (human (endogenous in HT-1080)) (UniProt O95405)
T1 sequence: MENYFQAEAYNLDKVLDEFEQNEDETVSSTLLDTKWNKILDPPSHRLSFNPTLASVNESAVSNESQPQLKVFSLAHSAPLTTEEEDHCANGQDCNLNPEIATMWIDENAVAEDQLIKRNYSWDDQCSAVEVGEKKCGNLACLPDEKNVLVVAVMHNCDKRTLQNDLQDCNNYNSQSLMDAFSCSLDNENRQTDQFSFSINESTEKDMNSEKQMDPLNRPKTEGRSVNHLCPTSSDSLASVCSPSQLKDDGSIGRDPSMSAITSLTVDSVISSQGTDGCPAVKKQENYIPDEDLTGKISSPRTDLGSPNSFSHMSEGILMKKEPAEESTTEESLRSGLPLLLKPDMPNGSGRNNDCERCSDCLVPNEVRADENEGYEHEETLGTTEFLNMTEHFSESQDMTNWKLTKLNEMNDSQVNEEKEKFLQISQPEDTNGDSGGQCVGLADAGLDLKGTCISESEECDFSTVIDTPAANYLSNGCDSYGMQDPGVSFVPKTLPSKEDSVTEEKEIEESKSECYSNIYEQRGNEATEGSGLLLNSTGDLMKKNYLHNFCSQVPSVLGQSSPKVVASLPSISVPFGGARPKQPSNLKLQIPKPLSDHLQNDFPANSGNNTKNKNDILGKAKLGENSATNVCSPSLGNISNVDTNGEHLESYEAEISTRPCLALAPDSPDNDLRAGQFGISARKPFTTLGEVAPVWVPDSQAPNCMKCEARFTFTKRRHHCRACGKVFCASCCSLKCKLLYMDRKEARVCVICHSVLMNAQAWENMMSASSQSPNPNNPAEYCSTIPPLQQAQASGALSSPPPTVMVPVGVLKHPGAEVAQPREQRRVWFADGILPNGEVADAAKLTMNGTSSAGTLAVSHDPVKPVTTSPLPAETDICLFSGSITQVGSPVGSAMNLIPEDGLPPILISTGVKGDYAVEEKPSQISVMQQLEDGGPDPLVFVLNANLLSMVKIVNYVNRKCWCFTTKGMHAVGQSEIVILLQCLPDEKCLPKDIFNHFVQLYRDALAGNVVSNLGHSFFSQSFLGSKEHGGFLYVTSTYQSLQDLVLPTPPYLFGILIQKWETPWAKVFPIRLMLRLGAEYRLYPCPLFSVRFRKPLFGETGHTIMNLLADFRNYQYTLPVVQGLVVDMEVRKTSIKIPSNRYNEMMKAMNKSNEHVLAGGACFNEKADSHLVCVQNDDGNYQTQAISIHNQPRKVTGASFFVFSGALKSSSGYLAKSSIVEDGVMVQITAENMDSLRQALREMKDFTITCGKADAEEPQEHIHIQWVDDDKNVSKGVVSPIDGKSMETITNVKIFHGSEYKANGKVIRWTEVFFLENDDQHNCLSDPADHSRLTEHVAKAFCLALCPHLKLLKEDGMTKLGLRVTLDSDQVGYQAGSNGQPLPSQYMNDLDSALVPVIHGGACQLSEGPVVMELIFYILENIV
Assay: co-IP; endogenous proteins, HT-1080 cells 3 h in hypoxia (1% O2) with or without tubacin (10 µM) or CAY10603 (1 µM); NP-40 lysate, IP of SARA, protein A-agarose; SMAD3 and SMAD2 blotted

binding	Substance
binds	SMAD3 (from UniProt P84022 1-425)
binds	SMAD2 (from UniProt Q15796 1-467)
